Experimental findings from article doi:10.1101/2023.11.08.566258 are described below.

In assay [1] the target is T1, Prominin-1 (Prom1), wild type, C-terminally Strep-tagged (human) (UniProt O43490).
T1 sequence: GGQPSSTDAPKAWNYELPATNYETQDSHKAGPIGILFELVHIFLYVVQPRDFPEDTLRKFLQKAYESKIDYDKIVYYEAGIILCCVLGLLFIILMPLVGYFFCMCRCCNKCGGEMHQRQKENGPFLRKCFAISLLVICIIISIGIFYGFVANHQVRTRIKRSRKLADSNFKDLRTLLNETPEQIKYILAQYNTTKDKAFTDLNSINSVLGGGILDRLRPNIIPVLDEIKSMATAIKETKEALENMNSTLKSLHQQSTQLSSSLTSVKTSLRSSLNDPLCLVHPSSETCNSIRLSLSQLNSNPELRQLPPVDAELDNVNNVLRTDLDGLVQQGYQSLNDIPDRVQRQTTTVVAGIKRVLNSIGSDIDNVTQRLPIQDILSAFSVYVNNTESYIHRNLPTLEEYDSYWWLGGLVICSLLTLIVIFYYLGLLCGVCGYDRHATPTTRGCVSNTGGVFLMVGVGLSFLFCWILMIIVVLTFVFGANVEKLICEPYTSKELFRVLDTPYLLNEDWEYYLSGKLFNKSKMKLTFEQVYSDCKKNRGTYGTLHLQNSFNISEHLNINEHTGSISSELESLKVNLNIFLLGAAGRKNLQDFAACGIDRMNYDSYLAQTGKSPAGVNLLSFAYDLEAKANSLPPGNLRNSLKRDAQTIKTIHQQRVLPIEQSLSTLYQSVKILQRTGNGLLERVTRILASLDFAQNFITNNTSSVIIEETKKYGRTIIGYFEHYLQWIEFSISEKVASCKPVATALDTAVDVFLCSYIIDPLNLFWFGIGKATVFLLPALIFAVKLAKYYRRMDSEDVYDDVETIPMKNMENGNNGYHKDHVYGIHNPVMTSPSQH
Nature of the assay: co-IP; Prom1-Strep immunopurified on StrepTactinXT resin from EVs solubilized with 1% DDM (25 mM HEPES-NaOH pH 7.8, 150 mM NaCl, 5 mM CaCl2, 4 °C); co-purified Pcdh21-mNeonGreen measured by fluorescence imaging of the resin beads (FITC filter set); control without Prom1-Strep.

The target of assay [2] is T1, Prominin-1 (Prom1), wild type, C-terminally Strep-tagged (human). Nature of the assay: co-IP; EVs from cells co-transfected with Strep-tagged and mScarlet-tagged Prom1, solubilized with 1% DDM; Strep resin; co-purified Prom1-mScarlet measured by fluorescence imaging of the resin beads (CY3 filter set); control with Prom1-mScarlet alone.

No constants are given. Whether binding was seen depends on the method and setting. Binding seen in cells or lysates may run through a third protein. Some binding calls cover weakened binding; strength is not graded here. Tags and fused reporters may be left off the sequences shown.

B1: Protocadherin-21 (Pcdh21), mNeonGreen-tagged (protein, UniProt Q96JP9-1 20-859)
chain: QANFAPHFFDNGVGSTNGNMALFSLPEDTPVGSHVYTLNGTDPEGDPISYHISFDPSTRSVFSVDPTFGNITLVEELDREREDEIEAIISISDGLNLVAEKVVILVTDANDEAPRFIQEPYVALVPEDIPAGSIIFKVHAVDRDTGSGGSVTYFLQNLHSPFAVDRHSGVLRLQAGATLDYERSRTHYITVVAKDGGGRLHGADVVFSATTTVTVNVEDVQDMAPVFVGTPYYGYVYEDTLPGSEVLKVVAMDGDRGKPNRILYSLVNGNDGAFEINETSGAISITQSPAQLQREVYELHVQVTEMSPAGSPAAQATVPVTIRIVDLNNHPPTFYGESGPQNRFELSMNEHPPQGEILRGLKITVNDSDQGANAKFNLQLVGPRGIFRVVPQTVLNEAQVTIIVENSAAIDFEKSKVLTFKLLAVEVNTPEKFSSTADVVIQLLDTNDNVPKFDSLYYVARIPENAPGGSSVVAVTAVDPDTGPWGEVKYSTYGTGADLFLIHPSTGLIYTQPWASLDAEATARYNFYVKAEDMEGKYSVAEVFITLLDVNDHPPQFGKSVQKKTMVLGTPVKIEAIDEDAEEPNNLVDYSITHAEPANVFDINSHTGEIWLKNSIRSLDALHNITPGRDCLWSLEVQAKDRGSPSFSTTALLKIDITDAETLSRSPMAAFLIQTKDNPMKAVGVLAGTMATVVAITVLISTATFWRNKKSNKVLPMRRVLRKRPSPAPRTIRIEWLKSKSTKAATKFMLKEKPPNENCNNNSPESSLLPRAPALPPPPSVAPSTGAAQWTVPTVSGSLTPQPTQPPPKPKTMGSPVQSTLISELKQKFEKKSVHNKAYF
For B1, in assay [1], the binding result was “binds”.

B2: Prominin-1 (Prom1), wild type, C-terminally Strep-tagged (protein, UniProt O43490-2 20-856)
chain: GGQPSSTDAPKAWNYELPATNYETQDSHKAGPIGILFELVHIFLYVVQPRDFPEDTLRKFLQKAYESKIDYDKIVYYEAGIILCCVLGLLFIILMPLVGYFFCMCRCCNKCGGEMHQRQKENGPFLRKCFAISLLVICIIISIGIFYGFVANHQVRTRIKRSRKLADSNFKDLRTLLNETPEQIKYILAQYNTTKDKAFTDLNSINSVLGGGILDRLRPNIIPVLDEIKSMATAIKETKEALENMNSTLKSLHQQSTQLSSSLTSVKTSLRSSLNDPLCLVHPSSETCNSIRLSLSQLNSNPELRQLPPVDAELDNVNNVLRTDLDGLVQQGYQSLNDIPDRVQRQTTTVVAGIKRVLNSIGSDIDNVTQRLPIQDILSAFSVYVNNTESYIHRNLPTLEEYDSYWWLGGLVICSLLTLIVIFYYLGLLCGVCGYDRHATPTTRGCVSNTGGVFLMVGVGLSFLFCWILMIIVVLTFVFGANVEKLICEPYTSKELFRVLDTPYLLNEDWEYYLSGKLFNKSKMKLTFEQVYSDCKKNRGTYGTLHLQNSFNISEHLNINEHTGSISSELESLKVNLNIFLLGAAGRKNLQDFAACGIDRMNYDSYLAQTGKSPAGVNLLSFAYDLEAKANSLPPGNLRNSLKRDAQTIKTIHQQRVLPIEQSLSTLYQSVKILQRTGNGLLERVTRILASLDFAQNFITNNTSSVIIEETKKYGRTIIGYFEHYLQWIEFSISEKVASCKPVATALDTAVDVFLCSYIIDPLNLFWFGIGKATVFLLPALIFAVKLAKYYRRMDSEDVYDDVETIPMKNMENGNNGYHKDHVYGIHNPVMTSPSQH
For the molecule B2, the binding entry in assay [2] is “binds”.
